PubChem BioAssay AID720505 – Drosophila RNAi Screening Center | 2013
Test: 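Genes needed for store-operated calcium entry in fly cells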 (primary screen). System: Drosophila S2R+ cells. Reagents: long dsRNA against Drosophila genes. Conditions: thapsigargin (2 µM) in calcium-free buffer to empty internal stores, then 2 mM calcium added back. Read-out: 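Stores emptied by 2 µM thapsigargin without calcium, then 2 mM calcium re-added; fluo-4 fluorescence followed by FLIPR in 384-well plates, per-well averaged endpoint, raw; two screen passes, some wells retested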. Reading the numbers: calcium signal and retest calcium signal: higher = more calcium entry after store depletion. Rule for the call: 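Knock-downs counted as hits when calcium entry dropped relative to STIM1 positive and Rho1 negative controls present on each plate; roughly 1500 genes called, with reductions of differing size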. Meaning of the calls: active = called as lowering calcium entry; inactive = not called.
The deposit covers about 20,000 reagents; this is an unselected part of those with a known target gene and a result. In the full data, about 2,100 (10%) were called active. 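Raw plate signals without normalisation; calls rest on control-based scores that were not deposited; replicate 2 separates called from uncalled poorly.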 Names joined by + are all predicted targets of the reagent. Reagent sequences are not shown. Not stated in the record: the amount of reagent, the time to read-out.

gene	DRSC id	calcium signal, replicate 1	calcium signal, replicate 2	retest calcium signal, replicate 1	retest calcium signal, replicate 2	Outcome
CG7492 (GeneID 38859)	DRSC10855	103	103			inactive
Osi11 (GeneID 40765)	DRSC12282	107	119			inactive
CG6923 (GeneID 41420)	DRSC16136	85.6	95.9			inactive
ND-13A (GeneID 33744)	DRSC03110	123	81.4			inactive
CG15717 (GeneID 32262)	DRSC19684	114	97.3			inactive
Gr57a (GeneID 37347)	DRSC06401	72.1	93.9			inactive
HP1b (GeneID 31834)	DRSC18418	104	95.4			inactive
Npc2d (GeneID 41232)	DRSC14551	109	115			inactive
rhea (GeneID 38978)	DRSC11300	107	84.8			inactive
CG17944 (GeneID 40885)	DRSC12572	79.2	115			inactive
CG13023 (GeneID 39894)	DRSC09903	97.2	202			inactive
Pgant9 (GeneID 246627)	DRSC05621	153	102			inactive
Pgant9 (GeneID 246627)	DRSC06584	124	124			inactive
Pgant9 (GeneID 246627)	DRSC07185	167	151			inactive
Pgant9 (GeneID 246627)	DRSC07186	156	204			inactive
Pgant9 (GeneID 246627)	DRSC07187	118	108			inactive
Pgant9 (GeneID 246627)	DRSC07189	125	98.3			inactive
Pgant9 (GeneID 246627)	DRSC21807	159	99.2			inactive
Pgant9 (GeneID 246627)	DRSC22076	101	281			inactive
lds (GeneID 45894)	DRSC16988	120	170			inactive
Dtd (GeneID 41371)	DRSC15362	186	146			inactive
CG32119 (GeneID 317866)	DRSC09248	7457	127			inactive
CG32119 (GeneID 317866)	DRSC21462	108	97			inactive
CG6066 (GeneID 43267)	DRSC15959	135	186			inactive
CG6066 (GeneID 43267)	DRSC22228	55.5	176			active
stw (GeneID 35494)	DRSC04842	128	158			inactive
stw (GeneID 35494)	DRSC04843	127	203			inactive
stw (GeneID 35494)	DRSC22527	104	95.1			inactive
Spn100A (GeneID 43642)	DRSC14596	119	159			inactive
Nin (GeneID 33757)	DRSC02007	139	166			inactive
H2.0 (GeneID 33841)	DRSC03340	200	111	125	106	inactive
H2.0 (GeneID 33841)	DRSC22555	89.3	154			inactive
RpL41 (GeneID 251466)	DRSC22958	100	107			inactive
Schip1 (GeneID 34393)	DRSC02851	155	184			inactive
esc (GeneID 34595)	DRSC03529	147	131			inactive
Eip93F (GeneID 44936)	DRSC13527					active
Eip93F (GeneID 44936)	DRSC16661	198	143			inactive
Eip93F (GeneID 44936)	DRSC21754	173	92.6			inactive
Eip93F (GeneID 44936)	DRSC23072	113	82.8			inactive
HP1Lcsd (GeneID 12798145)	DRSC03999	70.2	133			active
Lamtor4 (GeneID 38454)	DRSC08436	86.2	91.7			inactive
CG43795 + SkpF	DRSC04120	81.5	120			inactive
Cubn (GeneID 326235)	DRSC18256	133	109			inactive
FLASH (GeneID 36455)	DRSC06872	72.2	157			inactive
CG8765 (GeneID 40147)	DRSC11041	101	151			inactive
CG8765 (GeneID 40147)	DRSC23043	94.1	148			inactive
Nxt1 (GeneID 37769)	DRSC04630	120	137			inactive
Trc8 (GeneID 43476)	DRSC15437	77.9	159			inactive
CG43104 (retired record) (GeneID 12798318)	DRSC05624	71	92			inactive
nuf (GeneID 39572)	DRSC11379	64.1	184			inactive
nuf (GeneID 39572)	DRSC22524	101	77.4			inactive
nuf (GeneID 39572)	DRSC23276	98.6	107			inactive
LSm3 (GeneID 42842)	DRSC15920	283	148			inactive
CG13231 (GeneID 36169)	DRSC06351	119	134			inactive
CG43329 (GeneID 12798461)	DRSC11672	92.4	123			inactive
Argp (GeneID 261628)	DRSC16510	150	196			inactive
CG14227 (GeneID 32978)	DRSC19584	150	136			inactive
Kdsr (GeneID 43043)	DRSC14245	151	233			inactive
CG43108 (GeneID 12798329)	DRSC05654	74.3	179			inactive
COX1 (retired record) (GeneID 192469)	DRSC21275	77.4	209			active
CG15141 (GeneID 35044)	DRSC02441	90.1	88.7			inactive
CG15141 (GeneID 35044)	DRSC02442	151	154			inactive
Hr4 (GeneID 31162)	DRSC18495	3669	115	171	134	inactive
Hr4 (GeneID 31162)	DRSC18599	135	155			inactive
Hr4 (GeneID 31162)	DRSC22269	107	77.6			active
Hr4 (GeneID 31162)	DRSC22677	76.5	126			inactive
Hr4 (GeneID 31162)	DRSC23080	107	112			inactive
Hr4 (GeneID 31162)	DRSC23251	139	160			inactive
LanB1 (GeneID 34068)	DRSC03360	151	257			inactive
Pp2C1 (GeneID 31404)	DRSC18699	74.2	97.7			inactive
Pp2C1 (GeneID 31404)	DRSC23287	146	167			inactive
rho-4 (GeneID 32109)	DRSC19761	183	104			inactive
rho-4 (GeneID 32109)	DRSC19762	114	91.6			inactive
Fum1 (GeneID 31605)	DRSC18344	125	129	120	111	inactive
CG15233 (GeneID 35556)	DRSC04967	179	114			inactive
CG15877 (GeneID 38304)	DRSC08485	105	110			inactive
CG17637 (GeneID 40275)	DRSC11740	110	216			inactive
hdm (GeneID 31705)	DRSC18013	161	116			inactive
shf (GeneID 31617)	DRSC18283	188	123			inactive
Mhcl (GeneID 41955)	DRSC14216	142	160			inactive
Mhcl (GeneID 41955)	DRSC16753	142	135			inactive
CG7924 (GeneID 39574)	DRSC10931	71.6	149			active
Obp99d (GeneID 43496)	DRSC15046	187	154			inactive

Look-ups from the entries so far.
Under “calcium signal, replicate 2”, HP1Lcsd (GeneID 12798145) [DRSC03999] is entered as 133
Under “calcium signal, replicate 1”, CG8765 (GeneID 40147) [DRSC11041] shows 101
Result of CG43108 (GeneID 12798329) [DRSC05654] in “calcium signal, replicate 1”: 74.3
Value for CG7492 (GeneID 38859) [DRSC10855] under “Outcome”: inactive
For “calcium signal, replicate 1”, rho-4 (GeneID 32109) [DRSC19762] shows 114
For “calcium signal, replicate 2”, Spn100A (GeneID 43642) [DRSC14596] has 159
